The supplement of paper PMC12067093, “Discovery and optimisation of a covalent ligand for TRIM25 and its application to targeted protein ubiquitination” (Chemical Science, 2025)
The other results are listed elsewhere or left out.

The chains behind the UniProt entries cited, without tags or fusion partners. Where a name states a change or a piece, a line headed by the entry shows the natural chain unless it says otherwise.
UniProt P49916: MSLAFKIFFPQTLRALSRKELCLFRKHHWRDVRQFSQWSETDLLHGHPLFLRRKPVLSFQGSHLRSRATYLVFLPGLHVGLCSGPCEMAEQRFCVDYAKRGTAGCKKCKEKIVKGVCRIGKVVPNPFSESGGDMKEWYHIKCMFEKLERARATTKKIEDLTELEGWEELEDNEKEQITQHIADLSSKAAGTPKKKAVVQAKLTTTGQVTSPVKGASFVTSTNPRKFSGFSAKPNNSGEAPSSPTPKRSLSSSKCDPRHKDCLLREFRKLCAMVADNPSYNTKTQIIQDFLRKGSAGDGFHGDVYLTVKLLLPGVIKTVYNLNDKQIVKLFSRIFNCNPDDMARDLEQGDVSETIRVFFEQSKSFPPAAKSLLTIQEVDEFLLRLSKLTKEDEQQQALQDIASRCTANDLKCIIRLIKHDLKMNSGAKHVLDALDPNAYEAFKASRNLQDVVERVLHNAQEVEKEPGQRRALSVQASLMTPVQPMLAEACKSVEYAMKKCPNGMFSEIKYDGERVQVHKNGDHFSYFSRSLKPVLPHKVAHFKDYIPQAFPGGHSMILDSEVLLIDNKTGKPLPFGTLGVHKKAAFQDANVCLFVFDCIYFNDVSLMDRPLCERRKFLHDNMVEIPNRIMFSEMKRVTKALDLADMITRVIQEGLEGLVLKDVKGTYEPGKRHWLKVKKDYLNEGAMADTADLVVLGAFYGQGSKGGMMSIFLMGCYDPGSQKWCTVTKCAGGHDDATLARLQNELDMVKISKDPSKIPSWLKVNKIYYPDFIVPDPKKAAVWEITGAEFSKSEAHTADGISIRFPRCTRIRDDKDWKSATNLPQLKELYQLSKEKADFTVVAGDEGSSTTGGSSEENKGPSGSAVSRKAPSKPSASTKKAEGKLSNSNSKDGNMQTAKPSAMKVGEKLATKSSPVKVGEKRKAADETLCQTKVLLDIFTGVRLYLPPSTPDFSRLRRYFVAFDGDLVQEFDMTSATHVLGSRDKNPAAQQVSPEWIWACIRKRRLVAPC
UniProt P48449: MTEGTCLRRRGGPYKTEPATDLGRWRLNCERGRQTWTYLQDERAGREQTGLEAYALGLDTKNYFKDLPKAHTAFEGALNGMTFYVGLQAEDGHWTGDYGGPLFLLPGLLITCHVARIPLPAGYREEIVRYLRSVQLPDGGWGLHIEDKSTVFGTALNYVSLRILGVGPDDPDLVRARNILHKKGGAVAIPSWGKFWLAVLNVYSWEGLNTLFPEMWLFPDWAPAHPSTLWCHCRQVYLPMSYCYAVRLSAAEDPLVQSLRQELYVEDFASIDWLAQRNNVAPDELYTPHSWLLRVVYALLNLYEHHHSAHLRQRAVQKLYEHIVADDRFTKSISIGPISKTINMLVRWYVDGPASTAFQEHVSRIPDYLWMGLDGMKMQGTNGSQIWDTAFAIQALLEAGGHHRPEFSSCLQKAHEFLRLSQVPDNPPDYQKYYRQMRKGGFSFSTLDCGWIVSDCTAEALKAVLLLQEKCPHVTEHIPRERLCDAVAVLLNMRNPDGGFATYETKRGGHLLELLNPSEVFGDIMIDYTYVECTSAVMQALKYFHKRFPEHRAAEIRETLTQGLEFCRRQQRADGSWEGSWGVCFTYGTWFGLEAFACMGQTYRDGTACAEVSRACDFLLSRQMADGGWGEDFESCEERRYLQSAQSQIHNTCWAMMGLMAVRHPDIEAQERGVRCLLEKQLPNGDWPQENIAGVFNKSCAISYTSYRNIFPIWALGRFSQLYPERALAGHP
UniProt P09960: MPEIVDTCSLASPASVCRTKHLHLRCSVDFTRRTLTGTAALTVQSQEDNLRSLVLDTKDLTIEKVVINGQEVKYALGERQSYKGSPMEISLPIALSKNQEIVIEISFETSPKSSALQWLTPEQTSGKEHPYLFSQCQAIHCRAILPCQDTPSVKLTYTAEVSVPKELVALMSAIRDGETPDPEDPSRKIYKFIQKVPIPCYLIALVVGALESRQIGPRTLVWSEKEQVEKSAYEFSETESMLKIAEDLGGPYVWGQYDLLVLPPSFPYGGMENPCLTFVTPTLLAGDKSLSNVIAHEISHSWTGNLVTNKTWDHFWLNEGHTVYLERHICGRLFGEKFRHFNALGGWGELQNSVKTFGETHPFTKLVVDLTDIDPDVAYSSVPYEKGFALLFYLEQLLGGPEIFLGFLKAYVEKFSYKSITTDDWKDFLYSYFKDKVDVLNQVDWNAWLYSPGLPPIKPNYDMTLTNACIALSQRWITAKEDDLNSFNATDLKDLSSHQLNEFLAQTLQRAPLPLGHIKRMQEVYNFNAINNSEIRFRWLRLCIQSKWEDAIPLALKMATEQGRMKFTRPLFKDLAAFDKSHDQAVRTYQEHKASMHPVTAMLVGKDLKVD
UniProt P20700: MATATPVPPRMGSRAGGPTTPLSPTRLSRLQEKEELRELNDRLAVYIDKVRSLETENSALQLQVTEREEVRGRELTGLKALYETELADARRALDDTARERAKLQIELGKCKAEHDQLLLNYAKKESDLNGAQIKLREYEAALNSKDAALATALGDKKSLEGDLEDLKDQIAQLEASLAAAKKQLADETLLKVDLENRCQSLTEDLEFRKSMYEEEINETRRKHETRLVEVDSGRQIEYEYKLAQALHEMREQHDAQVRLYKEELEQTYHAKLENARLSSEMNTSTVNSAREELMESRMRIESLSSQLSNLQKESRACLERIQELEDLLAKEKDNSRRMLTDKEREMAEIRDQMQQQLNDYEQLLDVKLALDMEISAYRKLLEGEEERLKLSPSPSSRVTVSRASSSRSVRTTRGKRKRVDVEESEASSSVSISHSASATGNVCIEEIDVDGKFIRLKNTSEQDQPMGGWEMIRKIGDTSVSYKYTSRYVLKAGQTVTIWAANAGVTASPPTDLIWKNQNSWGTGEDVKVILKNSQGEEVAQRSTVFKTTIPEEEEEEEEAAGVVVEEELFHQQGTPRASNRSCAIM
UniProt P48059, whole entry, looked up: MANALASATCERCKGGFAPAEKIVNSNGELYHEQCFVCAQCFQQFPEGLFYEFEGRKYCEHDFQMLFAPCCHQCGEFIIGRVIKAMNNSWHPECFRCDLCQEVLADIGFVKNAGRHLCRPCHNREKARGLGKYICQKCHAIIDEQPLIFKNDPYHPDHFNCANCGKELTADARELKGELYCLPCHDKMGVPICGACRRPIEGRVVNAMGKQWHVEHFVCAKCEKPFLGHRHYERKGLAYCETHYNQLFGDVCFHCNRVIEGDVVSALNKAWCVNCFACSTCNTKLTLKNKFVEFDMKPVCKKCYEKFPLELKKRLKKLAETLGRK
UniProt Q7L5N7: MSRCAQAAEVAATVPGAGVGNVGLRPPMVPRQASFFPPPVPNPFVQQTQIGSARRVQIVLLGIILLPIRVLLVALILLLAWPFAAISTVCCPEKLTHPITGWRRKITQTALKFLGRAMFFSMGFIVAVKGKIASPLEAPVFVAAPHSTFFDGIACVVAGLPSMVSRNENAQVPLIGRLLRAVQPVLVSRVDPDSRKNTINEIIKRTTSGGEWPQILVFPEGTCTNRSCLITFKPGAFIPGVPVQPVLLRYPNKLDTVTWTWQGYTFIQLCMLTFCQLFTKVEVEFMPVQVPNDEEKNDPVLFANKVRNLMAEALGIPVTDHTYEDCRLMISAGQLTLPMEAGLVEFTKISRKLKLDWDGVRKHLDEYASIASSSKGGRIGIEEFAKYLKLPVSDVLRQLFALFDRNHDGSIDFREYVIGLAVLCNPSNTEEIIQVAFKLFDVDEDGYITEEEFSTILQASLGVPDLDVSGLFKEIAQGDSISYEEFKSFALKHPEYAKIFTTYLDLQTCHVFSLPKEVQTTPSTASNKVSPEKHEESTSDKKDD
UniProt O60711: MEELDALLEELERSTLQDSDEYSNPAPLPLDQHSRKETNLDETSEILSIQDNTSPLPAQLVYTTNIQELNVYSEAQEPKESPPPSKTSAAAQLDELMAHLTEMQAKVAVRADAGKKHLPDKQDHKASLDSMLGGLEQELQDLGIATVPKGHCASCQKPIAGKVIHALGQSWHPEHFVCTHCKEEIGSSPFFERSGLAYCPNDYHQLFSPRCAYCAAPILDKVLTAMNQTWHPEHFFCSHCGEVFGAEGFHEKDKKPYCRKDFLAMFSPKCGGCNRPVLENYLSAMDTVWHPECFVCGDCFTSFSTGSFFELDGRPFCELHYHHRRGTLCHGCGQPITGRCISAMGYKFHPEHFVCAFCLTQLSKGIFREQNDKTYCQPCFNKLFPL
UniProt Q8N149: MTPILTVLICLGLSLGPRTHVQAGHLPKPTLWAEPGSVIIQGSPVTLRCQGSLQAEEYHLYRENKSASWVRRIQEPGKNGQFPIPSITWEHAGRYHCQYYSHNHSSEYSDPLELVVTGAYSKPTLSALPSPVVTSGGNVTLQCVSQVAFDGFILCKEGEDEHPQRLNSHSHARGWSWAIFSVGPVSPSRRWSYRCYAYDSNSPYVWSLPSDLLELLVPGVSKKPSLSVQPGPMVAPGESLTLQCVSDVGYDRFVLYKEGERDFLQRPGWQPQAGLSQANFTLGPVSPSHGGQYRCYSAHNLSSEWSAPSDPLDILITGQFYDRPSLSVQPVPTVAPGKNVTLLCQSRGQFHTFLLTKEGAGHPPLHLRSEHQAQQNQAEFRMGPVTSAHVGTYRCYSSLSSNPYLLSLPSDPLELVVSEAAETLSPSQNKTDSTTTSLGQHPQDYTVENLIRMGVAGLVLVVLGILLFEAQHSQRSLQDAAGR
UniProt P09382, whole entry, looked up: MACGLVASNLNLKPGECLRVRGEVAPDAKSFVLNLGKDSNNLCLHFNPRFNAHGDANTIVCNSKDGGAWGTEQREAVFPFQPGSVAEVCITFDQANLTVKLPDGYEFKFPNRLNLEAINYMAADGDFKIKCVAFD
UniProt P36776: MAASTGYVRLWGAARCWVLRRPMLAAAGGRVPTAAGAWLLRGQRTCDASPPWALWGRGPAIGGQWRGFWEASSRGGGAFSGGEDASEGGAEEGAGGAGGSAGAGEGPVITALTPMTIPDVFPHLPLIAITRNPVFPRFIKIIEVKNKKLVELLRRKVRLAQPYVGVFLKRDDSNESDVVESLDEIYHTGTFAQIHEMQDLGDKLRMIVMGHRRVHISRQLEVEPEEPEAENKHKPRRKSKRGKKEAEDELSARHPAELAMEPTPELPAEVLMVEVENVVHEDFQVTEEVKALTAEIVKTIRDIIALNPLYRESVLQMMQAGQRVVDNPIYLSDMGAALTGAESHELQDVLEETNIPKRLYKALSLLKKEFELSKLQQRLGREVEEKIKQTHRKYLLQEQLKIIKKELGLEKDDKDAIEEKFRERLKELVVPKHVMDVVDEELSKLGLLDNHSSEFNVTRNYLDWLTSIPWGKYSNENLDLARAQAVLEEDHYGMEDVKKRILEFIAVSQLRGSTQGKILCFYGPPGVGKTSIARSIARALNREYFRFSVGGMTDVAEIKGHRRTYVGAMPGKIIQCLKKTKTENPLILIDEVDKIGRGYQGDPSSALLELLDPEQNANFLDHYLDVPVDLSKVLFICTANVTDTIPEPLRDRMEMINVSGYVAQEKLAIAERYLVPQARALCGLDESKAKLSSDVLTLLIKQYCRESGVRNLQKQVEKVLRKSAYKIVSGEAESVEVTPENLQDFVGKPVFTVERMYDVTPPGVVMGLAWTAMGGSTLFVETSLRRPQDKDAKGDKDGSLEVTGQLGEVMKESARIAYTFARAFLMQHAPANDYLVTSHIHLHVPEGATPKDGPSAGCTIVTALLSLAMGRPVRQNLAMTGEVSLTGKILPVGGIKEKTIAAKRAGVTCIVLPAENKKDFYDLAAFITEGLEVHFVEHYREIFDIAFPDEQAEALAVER
UniProt Q96B70: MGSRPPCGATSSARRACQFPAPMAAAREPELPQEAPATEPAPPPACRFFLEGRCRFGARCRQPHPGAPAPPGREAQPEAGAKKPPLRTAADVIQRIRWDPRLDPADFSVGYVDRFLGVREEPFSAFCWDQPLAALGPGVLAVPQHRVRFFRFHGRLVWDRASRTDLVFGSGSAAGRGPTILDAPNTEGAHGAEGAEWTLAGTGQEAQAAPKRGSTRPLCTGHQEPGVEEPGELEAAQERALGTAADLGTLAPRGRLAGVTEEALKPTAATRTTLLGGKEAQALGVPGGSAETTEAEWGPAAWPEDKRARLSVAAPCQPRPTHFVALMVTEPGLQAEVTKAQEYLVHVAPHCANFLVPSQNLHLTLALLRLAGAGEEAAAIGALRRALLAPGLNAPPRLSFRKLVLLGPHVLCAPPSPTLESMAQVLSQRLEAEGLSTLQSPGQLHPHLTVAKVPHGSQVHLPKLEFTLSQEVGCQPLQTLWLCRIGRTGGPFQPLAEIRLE
UniProt Q9BT23: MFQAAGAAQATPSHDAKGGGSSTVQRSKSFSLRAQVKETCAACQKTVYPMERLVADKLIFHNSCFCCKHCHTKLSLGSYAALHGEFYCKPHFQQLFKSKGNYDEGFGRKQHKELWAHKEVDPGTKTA

Compound: Cc1cc(ccc1-c1ccccc1)C(=O)N1CCCN(CC1)C(=O)CCl [compound 10]
Assay: probe-labelled cysteine peptide fold change vs DMSO (competition) (log2 fold change); higher = less target engagement (more negative = stronger competition)
Details: THP-1, incubation time: 4 h
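Further: competitive profiling in live THP-1 cells: cysteine peptides tagged with an iodoacetamide desthiobiotin (IA-DTB) probe, intensity after compound treatment relative to DMSO-treated cells.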

Target	probe-labelled cysteine peptide fold change (10 µM)	probe-labelled cysteine peptide fold change (50 µM)
LIG3_P49916_724_WCTVTK (UniProt P49916)	0.00591	-0.00822
LSS_P48449_636_QMADGGWGEDFESCEERR (UniProt P48449)	-0.158	-0.0587
LTA4H_P09960_147_AILPCQDTPSVK (UniProt P09960)	-0.0505	-0.143
LRBA_P50851_2675_CSGIGDNPGSETAAPR (UniProt P50851)	-0.179	-0.363
LTA4H_P09960_141_EHPYLFSQCQAIHCR (UniProt P09960)	-0.0413	0.126
LSS_P48449_471_CPHVTEHIPR (UniProt P48449)	-0.184	-0.209
LMNB1_P20700_198_CQSLTEDLEFRK (UniProt P20700)	0.0621	0.0749
LGALS9_O00182_74_FEDGGYVVCNTR (UniProt O00182)	0.126	0.163
LRRC40_Q9H9A6_23_DCGTSVPQGLLK (UniProt Q9H9A6)	-0.263	-0.46
LIMS1_P48059_240+252_GLAYCETHYNQLFGDVCFHCNR (UniProt P48059)	0.0277	0.118
LPCAT2_Q7L5N7_228_SCLITFKPGAFIPGVPVQPVLLR (UniProt Q7L5N7)	0.218	-0.034
LIG1_P18858_846_CADLSLSPIYPAAR (UniProt P18858)	0.126	0.0205
LPXN_O60711_152_GHCASCQKPIAGK (UniProt O60711)	-0.0607	-0.133
LPCAT2_Q7L5N7_223_RTTSGGEWPQILVFPEGTCTNR (UniProt Q7L5N7)	-0.109	-0.0316
LTN1_O94822_999_TLPSHLCTSALLSK (UniProt O94822)	0.0936	0.106
LRP1_Q07954_2404_CEYDGSHR (UniProt Q07954)	-0.124	-0.29
LILRA2_Q8N149_49_CQGSLQAEEYHLYR (UniProt Q8N149)	-0.146	0.115
LSG1_Q9H089_547_LLYCHPPPGRDPVTFQHQHQR (UniProt Q9H089)	0.176	0.276
LGALS1_P09382_3+17_ACGLVASNLNLKPGECLR (UniProt P09382)	-0.0869	-0.309
LLGL1_Q15334_1059_NLAEDEAHACAILIK (UniProt Q15334)	-0.45	-0.377
LONP1_P36776_909_AGVTCIVLPAENK (UniProt P36776)	0.0996	0.333
LTA4H_P09960_26_CSVDFTR (UniProt P09960)	-0.0479	0.0202

Target	probe-labelled cysteine peptide fold change (10 µM)	probe-labelled cysteine peptide fold change (50 µM)
LRRC47_Q8N1G4_60_LFTLPLLHYLEVSGCGSLR (UniProt Q8N1G4)	0.0276	0.0952
LGALS9_O00182_312+316_GQSFSVWILCEAHCLK (UniProt O00182)	-0.00654	-0.0266
LRRC8C_Q8TDW0_599_MTNLTELELVHCDLER (UniProt Q8TDW0)	0.152	0.204
LPP_Q93052_566_IVALDRDFHVHCYR (UniProt Q93052)	-0.0149	-0.255
LRRC59_Q96AG4_277_VTELQQQPLCTSVNTIYDNAVQGLR (UniProt Q96AG4)	-0.306	0.0875
LENG9_Q96B70_127_EEPFSAFCWDQPLAALGPGVLAVPQHR (UniProt Q96B70)	0.199	-0.344
LGALS9_O00182_312_GQSFSVWILCEAHCLK (UniProt O00182)	-0.0314	0.241
LRCH3_Q96II8_740_IGVPQEQLCLPLHILEEK (UniProt Q96II8)	-0.351	-0.235
LIMS1_P48059_161+164_NDPYHPDHFNCANCGK (UniProt P48059)	0.0894	-0.144
LIMS1_P48059_193_MGVPICGACR (UniProt P48059)	-0.104	-0.269
LIG3_P49916_499_KCPNGMFSEIK (UniProt P49916)	-0.186	-0.351
LRRK2_Q5S007_1187_FSCIPEAILNLPHLR (UniProt Q5S007)	-0.0375	-0.109
LPXN_O60711_178+181_VIHALGQSWHPEHFVCTHCK (UniProt O60711)	0.117	-0.151
LRCH1_Q9Y2L9_197_QLMELDVSCNEITALPQQIGQLK (UniProt Q9Y2L9)	-0.00665	-0.206
LPCAT2_Q7L5N7_223_TTSGGEWPQILVFPEGTCTNR (UniProt Q7L5N7)	-0.177	-0.195
LIMD2_Q9BT23_43_ETCAACQK (UniProt Q9BT23)	0.117	-0.234
LPCAT1_Q8NF37_211_WPQIMIFPEGTCTNR (UniProt Q8NF37)	0.0371	-0.0848
LMNB1_P20700_198_CQSLTEDLEFR (UniProt P20700)	0.000703	0.468
LRPPRC_P42704_208_LIASYCNVGDIEGASK (UniProt P42704)	0.0733	0.194
LRPPRC_P42704_927_LQWFCDR (UniProt P42704)	-0.155	-0.0944
LRPPRC_P42704_848_GDLSTALEVAIDCYEK (UniProt P42704)	0.146	0.228
